Assay results: article PMC8786290
These are yes or no findings as the source states them, for the method shown. Some entries that bind do so weakly or less than the wild type.

Target: T1, Hsp26 (S. cerevisiae (endogenous in BY4741)), P15992
T1 chain: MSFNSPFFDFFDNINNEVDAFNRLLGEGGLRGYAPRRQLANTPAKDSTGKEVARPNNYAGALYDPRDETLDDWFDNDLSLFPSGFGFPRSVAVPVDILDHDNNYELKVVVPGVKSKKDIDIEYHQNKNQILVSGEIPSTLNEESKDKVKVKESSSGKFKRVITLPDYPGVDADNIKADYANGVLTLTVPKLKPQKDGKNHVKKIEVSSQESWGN
Experiment: SEC; cleared BY4741 lysate in non-denaturing lysis buffer with 4 mM MgATP, diluted to 1 mg/ml, HiLoad 16/60 Superdex 200; fractions analysed by SDS-PAGE (Coomassie) and Western blot with Hsp26 antiserum; cells grown in 0.05% glucose
Settings: remark: other sources report otherwise

B1: Hsp26, P15992 1-214 (protein)
chain: T1 chain
- binding: binds
